# Laboratory results from PMC5630301.
# Chains of the proteins cited; added tags and fusions are not shown. Lines headed by an entry give the natural chain unless they say otherwise; changes in a name come on top. A line that says so, or that is headed by a name, gives the form on record, which may keep a tag or linker.
# UniProt P39748: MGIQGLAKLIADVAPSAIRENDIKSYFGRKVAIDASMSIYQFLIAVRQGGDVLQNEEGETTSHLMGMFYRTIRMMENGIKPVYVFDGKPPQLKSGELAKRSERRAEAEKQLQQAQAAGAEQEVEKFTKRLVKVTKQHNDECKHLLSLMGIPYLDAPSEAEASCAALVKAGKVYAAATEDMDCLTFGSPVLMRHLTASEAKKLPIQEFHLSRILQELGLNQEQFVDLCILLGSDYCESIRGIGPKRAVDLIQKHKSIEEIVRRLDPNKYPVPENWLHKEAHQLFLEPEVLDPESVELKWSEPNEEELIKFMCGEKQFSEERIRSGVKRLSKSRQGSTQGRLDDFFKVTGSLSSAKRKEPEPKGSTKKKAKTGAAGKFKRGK
# FEN1 KRR (P39748, form named): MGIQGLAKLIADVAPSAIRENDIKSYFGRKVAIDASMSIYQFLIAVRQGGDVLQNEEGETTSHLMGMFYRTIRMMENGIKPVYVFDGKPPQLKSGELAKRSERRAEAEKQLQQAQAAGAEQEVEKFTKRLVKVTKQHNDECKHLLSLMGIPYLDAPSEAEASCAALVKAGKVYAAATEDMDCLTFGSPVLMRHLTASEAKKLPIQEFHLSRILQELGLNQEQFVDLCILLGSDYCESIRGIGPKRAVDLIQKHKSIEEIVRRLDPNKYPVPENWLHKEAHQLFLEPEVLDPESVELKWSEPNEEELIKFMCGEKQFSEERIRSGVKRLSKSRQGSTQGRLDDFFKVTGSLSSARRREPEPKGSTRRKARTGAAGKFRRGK
# No constants are given. Whether binding was seen depends on the method and setting. Some entries that bind do so weakly or less than the wild type. Tags and fused reporters may be left off the sequences shown.
# Molecular target: T1, GST-SET7 (human) (UniProt Q8WTS6)
# T1 sequence: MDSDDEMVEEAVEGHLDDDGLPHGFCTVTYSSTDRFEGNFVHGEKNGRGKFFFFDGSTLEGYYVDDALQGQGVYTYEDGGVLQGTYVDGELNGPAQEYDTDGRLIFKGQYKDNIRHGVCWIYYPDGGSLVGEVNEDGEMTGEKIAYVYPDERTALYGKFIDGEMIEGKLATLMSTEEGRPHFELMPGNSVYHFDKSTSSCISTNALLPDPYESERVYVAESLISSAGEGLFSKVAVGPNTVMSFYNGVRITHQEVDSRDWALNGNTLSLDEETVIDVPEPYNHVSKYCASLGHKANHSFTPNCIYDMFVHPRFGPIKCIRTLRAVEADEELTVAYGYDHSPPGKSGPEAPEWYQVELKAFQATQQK
# Test: pull-down; GST pull-down: GST or GST-SET7 preincubated with FEN1 WT or FEN1 KRR at 37°C for 15 min in GST buffer (20mM HEPES KOH pH 7.9, 150 mM KCl, 0.2 mM EDTA, 10% glycerol, 0.2% NP40, 0.5 mM DTT) with 1mg/ml bovine serum albumin; glutathione Sepharose beads at 4°C for 1h; detected by immunoblotting; both purified
row,Substance,binding
1,FEN1 KRR (from UniProt P39748 1-380) (enzyme),binds
2,FEN1 WT (from UniProt P39748 1-380) (enzyme),binds
